The campaign covered roughly 52,000 sequences. About 210 (0.4%) were called active.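 How the source made its calls: active means gene whose silencing raises cell survival under the drug, median off-target-corrected z-score across its silencing RNAs 2 or more; inactive means the rest.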 This is one part of the list.

Results on 66 sequences are retold here after PubChem BioAssay AID1347423 (Functional Genomics Laboratory (NCATS/FGL), 2020).

This assay is described as follows: Resistance to Poly (ADP-Ribose) Polymerase inhibitor: Gene Identification via Genome-wide siRNA Screen. Conditions: mouse BRCA2 R2336H ES cells, olaparib, CellTiter-Glo viability; stronger effect = higher value. Put shortly: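 Genome-wide siRNA screen (3 siRNAs/gene, 20 nM) in mouse ES cells carrying hypomorphic BRCA2 R2336H; olaparib 500 nM added 48 h post-transfection, CellTiter-Glo viability 72 h later. Normalized to plate-median negative control; MAD z-scores, gene median, seed-adjusted.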
(In general: Cellular ATP, detected with luciferase, serves as a proxy for viable cell number.)
Consider GCCUCCUAGUAUUUACAUGTT against Ube2j2, for which the z-score is inactive: 0.512. Under GGCUUCCUGUUUGUUUGGATT against BC021614 stands inactive: -0.33; under “GGGUAAUACUCCUAAGAAATT against A630050E13Rik”, inactive: 1.1; under CCCUUAAUAAAGAAGGGACTT against AU019532, inactive: -0.754. On to CCUCAAGGAACUGAAUGCCTT against Olfr1320, for which the z-score was inactive: 1.41.

As to CGAUGACCUUGAAUAAAAATT against Vim, the z-score was inactive: 0.012. For “GGACUUUGUCACCAUGACGTT against 2600002E23Rik”, the z-score was inactive: 0.643. In the case of GCUCCUAAUCUAGGAUCUGTT against Prss22 it was inactive: 2.35.

On to GGAGUACUGGGCAUAUAAATT against Slc29a3, for which the z-score was inactive: 0.29. In the case of “GCUUAUGAGAUGAGUGAAUTT against D11Ertd707e” it was inactive: -0.671. Under CCAUUGAAUCAGUUGAAGUTT against Slc5a7 stands inactive: 0.312; under GGGUCACAGAGGUUACCCATT against Col2a1, inactive: 0.0649; under “GGCCUUUAGUGCCAUUGUUTT against 5930416I19Rik”, inactive: -2.98.

With GGGUGAAGAUUCUCUACAATT against Dctn3, the z-score was inactive: -2.07. Under “GGUUGUGAAGUGAGAAUUCTT against 4930429A08Rik” stands inactive: 0.292; under CGACACUCAAUGUGAACUUTT against Grtp1, inactive: -0.287. Under GCUGUCUAGUACAUCUGACTT against Cry2 stands inactive: -1.2. In the case of GCAAGGUGCACCUAAAGCATT against Egr4 it was inactive: -2.04; in that of GGCAGGUUUGGUAACCAGATT against Fut1, inactive: -0.814. In the case of GGUUGUUGGCUGGAUGAUATT against Acvr2, the z-score was inactive: -1.23. Under “GCCUCAGUGUCUGUUGGAATT against 2310067B10Rik” stands inactive: -0.779. On to GAGCCUCUGUCUUUUUCUATT against Olfr342, for which the z-score is inactive: 0.104.

Regarding CCUUACUGAUACUCAAUUUTT against Sec14l4, the z-score is inactive: 0.647.

With GGACUCAAGCAAACUCCAGTT against Stx12, the z-score was inactive: -1.81. Under GGCAGUUAGUAAGUUUAAATT against Eif5a2 stands inactive: -0.0487; under GCAACAAUGUAUGCGUAUATT against Mrpl27, inactive: 0.0358; under GCAUUAUGACUCUAAUAGCTT against Olfr60, inactive: 0.536.

For the sequence “GCAGAAGACCGCUUAAACATT against 4930413O22Rik”, the z-score is inactive: -0.302. Under GGAGACAGAGGAAAUUCAGTT against Apoa5 stands inactive: 2.35; under GGACCCAGCAUUGGACUUGTT against Zranb1, inactive: 1.2; under GGCCAUCAGAUUGGUGAAATT against Ccl17, inactive: 0.657.

Regarding GGGCAAGAAUAAAUGAAAGTT against Hes1, the z-score is inactive: -0.63. For the sequence GGCAGUUUGACAACUUUAATT against Fibp, the z-score was inactive: 0.0768.

GCAUUCAGAAAUUGAGGGUTT against Sin3b: the z-score is inactive: -0.475. In the case of GCCCAAACAUUCUUCGACUTT against Ubl3 it was inactive: -1.19; in that of “GCCAUUUUGUCAAUUCACCTT against 0610040B21Rik”, inactive: 1.58.

Take CCGAUUUUUACUUUUAGCUTT against Slc16a7: the z-score is inactive: 0.605. Under “GGCAUCUUGGAGGAUUUGCTT against 0910001A06Rik” stands inactive: 1.02.

With GGAGAGGUGGAAAUCUCUATT against Rasgef1c, the z-score was inactive: 0.298. For the sequence “CCAACUCGUGAUUCUAGACTT against 1110014C03Rik”, the z-score is inactive: 0.138. In the case of “GGGCUCCUUAUGGAGGAUATT against A630091E08Rik” it was inactive: -1.2.

Consider GGCCUUGGAAAUGAUAAGUTT against Scrn3, for which the z-score is inactive: -0.359.

As for GGCCUGUGCACACUUCUGUTT against Edn3, the z-score was inactive: 1.24. As for GGAACGAUGAGGAAAUCUCTT against Mclc, the z-score is inactive: 0.622. Under GGCCAGAAGAUUCCUAAAGTT against Gulp1 stands inactive: 0.912.

CCCUCACAGCGACUUUAACTT against BC022765: the z-score was inactive: 0.663. With GGCUGCACCUGAAUUCCAATT against Lrrn1, the z-score is inactive: -0.205. With GGCAAAUACAGGCUAAAGUTT against Caps2, the z-score is inactive: -0.199. Under GGAACAUGACAGAGAUUUUTT against Bai1 stands inactive: 0.865; under GGUGCUUUCUGCUUACUGATT against Ephb2, inactive: 1.43.

Turning to CCAAUGGAACAUUAAGUGATT against Psma1, the z-score is inactive: 1.97. Under CUACGUGCUAGCUCAAGGATT against Mmp28 stands inactive: 0.575; under GGCCAAAGAAGAAAUCCAATT against Pop4, inactive: 1.14. Under GUCAUCAAUCAAGUCUUGATT against Olfr1408 stands inactive: -1.88; under GGGUUUCAUUAAAUUUCCUTT against Cyp2g1, inactive: -0.283.

Consider “GGUGAAGACAGAAUUUCCGTT against 1700128F08Rik”, for which the z-score is inactive: 0.392. As to GCUACACUAUUCUAGCAAATT against Cryzl1, the z-score is inactive: 0.0429. Under GCAGUUGUCAUGCUAAACCTT against Ptpn2 stands inactive: 0.398; under GGUGUUUAUCGACAGGUACTT against Myo15, inactive: 0.775.

“GGAGCAGAAAAUCGUUGUGTT against 1100001I22Rik”: the z-score was inactive: -2.96. In the case of GGUGCAGUUGAACUUCUACTT against Dnajc1 it was inactive: 0.682; in that of GGGAACUCCUUAUGAAUGGTT against Stau2, inactive: 0.0159. In the case of GGUCUCUUGGUGAUUUCCATT against Phyhipl it was inactive: 1.26; in that of GCCAGAGUACCACAUUAGUTT against Pcdhga4, inactive: 0.264. Under “GCAAACAAAACAAGUGAGCTT against D630003K02Rik” stands inactive: 1.69; under GGACCAUAGACAGAGAUUATT against Gprk5, inactive: 0.162.
